Drawing on PubChem BioAssay AID1508600 (Functional Genomics Laboratory (NCATS/FGL), 2020), this text covers z-score for 107 sequences.

Screen size: about 53,000 sequences; about 3,700 (7%) were called active.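 Rule for the calls: active = gene knockdowns whose robust z-score for IL-1 alpha signal is at least 2 or at most -2, so actives lie on both sides; inactive = the rest.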 The list shows a part of the results.

The nature of this assay: Components of the Cytosolic LPS Sensing Pathway: Gene Identification via Genome-wide siRNA Screen.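 Note: robust z of the log signal after scaling to non-targeting control siRNA wells of the plate.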 As to conditions: RAW264.7 macrophages, IL-1a HTRF, actives lie on both sides, screened at 100 nM (by protocol), cells primed 5 h with Pam3CSK4 first. In short, it runs like this:
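RAW264.7; siRNA 100 nM final, RNAiMAX, 48h 37 degrees C; Pam3CSK4 5 h; LipidA + TransIT-TKO 24 h; IL-1a HTRF; CellTiter-Glo viability; robust z vs negative-control median.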
(TR-FRET usually uses a lanthanide donor and a delayed reading to cut background.)
In the case of GCACUGAGUACUGCCUCAUTT against Otop3, the z-score was inactive: -0.185.

Turning to GGGUUCAAAACUAUGGAUATT against Stk26, the z-score was inactive: 0.575.

For the sequence GGACCUUGCUAAGAAGUACTT against Nub1, the z-score was inactive: -0.603.

Regarding GGCGAUAGUGUCUAAGAAATT against Cfap298, the z-score was inactive: -0.0112. Consider GGCCAAUGUCUUCUUCAAGTT against Arpc3, for which the z-score is inactive: 0.38. Turning to CGGUCUGUUCAUAUCUUACTT against Klhl25, the z-score was inactive: 1.59.

For GGAAGAUCUCAGUGAGCAUTT against Gpcpd1, the z-score is inactive: 0.69. For “GGUUGCUAGUUUCUGAAAATT against C130074G19Rik”, the z-score was inactive: -1.14. Then GGUGAAUAAAGACCGAGGUTT against Anks6, with inactive: -1.58; and GGUAGAUUUGGAAUAAGCCTT against Gpbp1l1, with inactive: -0.621; and GGCCACUUUACUGUAGCUGTT against Ermard, with inactive: 0.49.

On to CCGGGACAUAGAGGAAAUUTT against Cabp1, for which the z-score is inactive: -0.113. With CCAUUAGGAUCCCUUAGGGTT against Xkr7 the figure was inactive: -1.54; with CCUUUACUUCACUCUUAGCTT against Trim66, inactive: 0.535; with CCUUGUUGCUUUCCUAACCTT against Ifit1bl2, inactive: -0.52. For “GCAUACUUAGGAUACACGCTT against A830005F24Rik”, the z-score is inactive: -0.647.

In the case of GCACCAUAUCCUCUGCAUUTT against Slc5a6, the z-score is inactive: -0.316. For GCUUCUAGAGACAAAAAAUTT against Mapk8ip3, the z-score is inactive: -0.514. In the case of GGGAACUCAGCUUCACCAATT against Trim47, the z-score was inactive: -1.53.

Turning to GGGACCAUACACUCCAUAUTT against Olfr1507, the z-score was inactive: -0.284. Take CGGUCAUUAAAACUUACAGTT against Hells: the z-score is active: 2.69.

Consider GGCAGCUGAGCAUAAUCCCTT against Tut1, for which the z-score was inactive: -1.22. On to GGAGGUUAAGAUUCCAGAGTT against Prune1, for which the z-score is inactive: 1.52. For the sequence CCAGUGCGAUUCAAGAUUATT against Glrx, the z-score is inactive: -0.769. As to GCUUUAUUCACUCACUUUCTT against Chsy3, the z-score is inactive: 0.814. Turning to GGUGAUUUGUGAAAGGGUGTT against Rnf38, the z-score was inactive: 0.907. Turning to GGCUUUCUUAUUUUCCUGUTT against Smim12, the z-score is inactive: -0.744. Consider GCCUGUGGCUUAAACUUCATT against Vat1l, for which the z-score was inactive: 0.11. Then CCGGUUUAACUUCAUCAUGTT against Dcaf4, with inactive: -1.35; and GCGGGCCAUAAAGAGACAUTT against Timm17a, with inactive: -0.164; and GGGCAUUUGUGAAAGAACUTT against Mapk1ip1l, with inactive: -0.901.

As for GGAGGUAUACAGUAAGGAGTT against Fbxo32, the z-score was inactive: 0.542. On to GCAAAAUUACCAGCUUACUTT against Tox4, for which the z-score was inactive: -0.269. Consider ACCGGAUCCAUUCACCUACTT against Fxyd1, for which the z-score is inactive: -1.22.

In the case of GGCCACAAUGGAUCAGAUGTT against Gldn, the z-score was inactive: 1.53.

For CCGUAUCAUUUCACUGCUCTT against Abca16, the z-score is inactive: 0.653.

On to GGUCCAAUUUUAUAACAGUTT against Dmtf1, for which the z-score was inactive: 0.359. As to CGAGGUCAAUAUCAUUCCATT against Serpinb11, the z-score was inactive: 0.727. Then GCCUUUAGGUGUCAGUCCUTT against Zfp869, with inactive: -0.242; and CGUCCAUCAAACGAUCACCTT against Alox5, with inactive: 0.638; and CGACCUGUGGGAAGAUAUUTT against Apoa5, with inactive: -0.992. As for GGCAUCUCUCCAAUAACCUTT against Fbxw2, the z-score is inactive: -1.2. Regarding GGAUGGAGAGAUAAGAAAATT against Lmntd1, the z-score was inactive: -0.572. For GGGAAUGUUCUAUAACUCATT against Prep, the z-score was inactive: 1.34. Then GGUGGAAGUCUCCAAGACATT against Tatdn1, with inactive: -0.318; and GGAUUUAGCCAUGGAUUUCTT against Zfp473, with inactive: -1.17. Then GGCUGUAACCUCUUCAUCUTT against Celf6, with inactive: 1.38. Turning to GGCCAAAGAAGAAAGUGACTT against Opn3, the z-score is active: -2.72. With GGAAGACAGAAAUGAAGAUTT against Enah the figure was inactive: -0.736. GGUAUCAUGAUCACUGUUUTT against Slc30a8: the z-score is inactive: -1.47. Take GGAGCAUUCUCCAUCUAGCTT against Dennd2d: the z-score was inactive: -1.41. Take GGGUUACACAUCAUUUUGGTT against Golph3: the z-score is inactive: 1.45. For the sequence GGCCAUUACCCAUGAGACUTT against Cd63, the z-score is inactive: 0.997. With GGAACUGGGCAUCAAGUACTT against Hacl1 the figure was inactive: -0.801; with GGGAACAGCCUUCACAAUGTT against Pomt2, inactive: -0.524. For the sequence GGAUCUUUCUUUUCUCUCUTT against Rab6b, the z-score was inactive: 0.32.

As to GGGAAAAUUCCAGAAUUGUTT against Serpinb9c, the z-score was inactive: -1.37. For CCGGGAAUAUGACCAGUACTT against Cd3g, the z-score was inactive: 0.266. In the case of GGGAAACUGUAUUAAUCUCTT against Foxc1, the z-score is inactive: 0.103. As for GGUGCUUAAAACAGAAAGATT against Myo9a, the z-score is inactive: 0.572.

On to CCUACAGAGGUGCCAUUGUTT against Naa60, for which the z-score was inactive: -0.244. With GGACCAUCUCUUUCAUUGCTT against Olfr1124 the figure was inactive: -1.66. GGAACUGCUAAUCAACCAUTT against Zmynd10: the z-score is active: -2.14. Turning to GCUCAUAGGCCUCAUCGUUTT against Piwil1, the z-score was inactive: -0.653. For GGAUAUCAUAUUUUCUCAGTT against Fam71d, the z-score is inactive: 0.0644. As to GCAACCGAAAGAUAAAGCCTT against Ctu1, the z-score is inactive: 0.438. Take GGUCAUUGAUGGCUUUUUUTT against Mus81: the z-score is inactive: -1.54.

Regarding ACCUUUGUCCUUUUGUUGUTT against Defb15, the z-score is active: 2.01. Consider GGCACUUUGAUUGUACAAUTT against Dyrk4, for which the z-score is inactive: 0.726. GGAGCUUAGACAAAAAGCCTT against Spty2d1: the z-score is inactive: -1.04. With GGACACAGAUAGAAAUACUTT against Glo1, the z-score is active: 2.73.

For GGACAGAAAGAUUGUGAUCTT against Arhgap12, the z-score is inactive: 0.306. As to CGGUCAAGGACAGGAAGUGTT against Eif4b, the z-score is inactive: 0.518.

Consider GGAAUCCUCAUUCUGGAUGTT against Abcg8, for which the z-score is inactive: 0.462. In the case of GGCUUUAGGUAGUAGUCUCTT against Kansl2, the z-score is active: -2.9. Consider GGGCCACAGCUUAAUACUGTT against Ptov1, for which the z-score is active: 3.28. GGCUCAAGGUCUUUUCAACTT against Olfr702: the z-score was inactive: -0.458. Turning to CGUUGCACCUCUAUGGCAATT against Podnl1, the z-score is inactive: -0.527. As to CCUGAAAAGCUAUUGGGUATT against Baat, the z-score was inactive: -0.196. As to GGUUACUAUGUGAAGAUUUTT against Abra, the z-score is inactive: 0.769. Consider CCUUGAGAAGUUAAACCAUTT against Specc1, for which the z-score is inactive: -1.06. With GCCAAGGAGAUCACACUUATT against Chrnd the figure was inactive: -0.129; with “CCUCAAAAUGGCUAUGGACTT against 1520401A03Rik”, inactive: 0.587; with “GCUCAGAAACACCUUCUGGTT against 2310011J03Rik”, inactive: 0.866. As to AGCUCCAUCCUAAUGAGGUTT against Klk1b22, the z-score was inactive: 0.703. As to GCUAACUUGCUCAUGCAAATT against Txlnb, the z-score was inactive: -0.00758. Then GGAAGUGCUGAAGGUGUACTT against Spire2, with active: 2.38. With GGAAUUGACUGUGUUAAGATT against Zfr the figure was inactive: -1.16; with GGUGAAUUUACUCCUGAAATT against Asxl2, inactive: 0.267; with GGUGGAAAUGGGAGAAUUUTT against Sparc, inactive: 0.59.

Turning to GGUUCUGUCCGCUUUUUGGTT against Coasy, the z-score was inactive: 0.119. Then GUGUCUCUGGCUGUUCUGATT against Atp5o, with inactive: 1.14; and CCAGUUACUAGUAAUACUCTT against Mcm3ap, with inactive: -0.0482. In the case of GCAUGGAUCCCUUUUCGAUTT against Tgfbr1, the z-score was inactive: -0.35. As to CGCACGAGAAGACCUCUUUTT against Fam71b, the z-score was inactive: 1.4. With GGGUUUGACUACAAGACUUTT against Mat2a, the z-score was inactive: 0.521. As to GGAGUGAGACAAGUGUAUGTT against Sprr1a, the z-score was inactive: -0.0345. Turning to GGGCUAUGGUUUUAUCGAATT against Puf60, the z-score was inactive: 0.0423. In the case of AGUGUAAGAGCCUGUUUAUTT against Xlr, the z-score is inactive: 0.474.

For the sequence GCAACGCAACAGCAUUCCUTT against Psmg1, the z-score was inactive: 1.34.

With GCUUACCAUGAAAAUAUUGTT against Kcnip1, the z-score is inactive: -0.495.

Regarding GCAAUGGGUUGUAAAUUUATT against Fndc3a, the z-score is inactive: -0.0948.

Take GGACAUCCAUUCAAGGCCUTT against Rtn3: the z-score is inactive: -0.941. As for GGACCACUACAUCAUAUACTT against Lcn4, the z-score is inactive: -1.17. CCCUGGGUUCUGAUCUUAATT against Cd207: the z-score was inactive: 1.64.

For GGUUUACACUGACUAUGUGTT against Cdkl2, the z-score is inactive: -0.78.

As for GUUUAACUACAACAAUGAGTT against Dcpp1, the z-score is inactive: 1.23.
